# HELM strings list residues between dots; [ac] is acetyl, [am] amide, other brackets name non-standard units.
# Assay: general procedure: Fmoc solid-phase peptide synthesis; Fmoc-ProO-chlorotritylresin (2-chlorotrityl polystyrene)
# Details: whole synthesis
row,Substance,final purity (method not given) [%]
1,"PEPTIDE1{R.W.L.K.K.R.R.W.V.Y.Y.R.[dP].P}$PEPTIDE1,PEPTIDE1,1:R1-14:R2$$$V2.0",100
2,"PEPTIDE1{R.W.L.V.K.R.R.W.K.Y.Y.R.[dP].P}$PEPTIDE1,PEPTIDE1,1:R1-14:R2$$$V2.0",100
3,"PEPTIDE1{R.W.L.K.K.R.R.W.K.Q.Y.R.[dP].P}$PEPTIDE1,PEPTIDE1,1:R1-14:R2$$$V2.0",100
4,"PEPTIDE1{R.W.L.K.K.R.R.W.K.Y.Q.R.[dP].P}$PEPTIDE1,PEPTIDE1,1:R1-14:R2$$$V2.0",100
5,"PEPTIDE1{R.W.L.K.K.R.R.W.K.Y.V.R.[dP].P}$PEPTIDE1,PEPTIDE1,1:R1-14:R2$$$V2.0",100
6,"PEPTIDE1{R.W.L.K.K.R.R.W.K.Y.L.R.[dP].P}$PEPTIDE1,PEPTIDE1,1:R1-14:R2$$$V2.0",24
7,"PEPTIDE1{R.W.L.K.K.R.R.W.K.T.Y.R.[dP].P}$PEPTIDE1,PEPTIDE1,1:R1-14:R2$$$V2.0",54
8,"PEPTIDE1{R.W.L.K.K.R.R.W.L.Y.Y.R.[dP].P}$PEPTIDE1,PEPTIDE1,1:R1-14:R2$$$V2.0",100

# Reference: US7582604B2 (Polyphor Ltd., priority 2002, dated 2009)
